{
  "source": "PubChem BioAssay AID504467",
  "about": "(National Center for Advancing Translational Sciences (NCATS), 2011)",
  "note": "Out of some 330,000 compounds screened, about 7,700 (2.3%) were called active. The inconclusive results got no clear call from the source; some entries with a clear call stand among them for comparison. The call rests on the fitted dose curve; in most records, active means well fitted inhibition curve with a large enough effect; inconclusive means small, poorly fitted or top-dose-only effect, or effect the other way; inactive means flat fitted curve, though single readings scatter. Where the call is inconclusive, the potency comes from a doubtful curve fit. Potency means the concentration at half of the fitted maximal effect.",
  "data": [
    {"assay": "qHTS screen for small molecules that inhibit ELG1-dependent DNA repair in human embryonic kidney (HEK293T) cells expressing luciferase-tagged ELG1; further: nearly all actives have a fitted effect of over 55% in size", "conditions": "HEK293T ELG1-luciferase reporter, luminescence, 16 h, DNA damage induced by 5-fluorouridine; series mostly up to 46.1 µM", "summary_of_the_method": "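Quantitative HTS, concentration-response format. 2,000 cells/well co-treated with 5-fluorouridine and compound, 16 hr in 5% CO2 at 37 °C; ONE-Glo luminescence read after 30 min.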", "values": [
      {"molecule": "COc1ccc(C(=O)N2CCN(c3ccc(NC(=O)c4cccnc4)cc3)CC2)cc1", "Potency": "inconclusive: 20.6 µM [inhibitor, partial curve, poor fit]"},
      {"molecule": "CC(C)CCN(CC(=O)NCc1ccc(F)cc1)S(=O)(=O)c1ccccc1F", "Potency": "inactive"},
      {"molecule": "CCOC(=O)[C@@H]1[C@H]2COc3ccc(Br)cc3[C@@H]2N2C(=O)N(c3ccc(F)cc3)C(=O)[C@]12C", "Potency": "inactive"},
      {"molecule": "CCN(CC)C(=O)Cn1cc(S(=O)(=O)CC(=O)Nc2ccc(F)cc2F)c2ccccc21", "Potency": "inconclusive: 23.1 µM [activator, partial curve, poor fit]"},
      {"molecule": "O=C(Cc1ccccc1[N+](=O)[O-])N1CCN(c2ccccc2F)CC1", "Potency": "inconclusive: 10.3 µM [activator, partial curve, poor fit]"},
      {"molecule": "CCOC(=O)c1[nH]c(C)c(C(=O)OC)c1C", "Potency": "inconclusive: 13 µM [activator, partial curve]"},
      {"molecule": "CCC(=O)Nc1nnc(/C=C/c2ccc(OC)cc2)s1", "Potency": "inconclusive: 20.6 µM [activator, partial curve]"},
      {"molecule": "O=C(NCCO)c1ccc(CSc2nc3ccccc3[nH]2)cc1", "Potency": "inconclusive: 8.2 µM [activator, partial curve]"},
      {"molecule": "O=C1Nc2c(Br)cc(Br)c3cccc1c23", "Potency": "inconclusive: 23.1 µM [activator, single point]"},
      {"molecule": "O=C(Cc1ccccc1Cl)Nc1nc2ccccc2[nH]1", "Potency": "inconclusive: 29.1 µM [activator, partial curve, poor fit]"},
      {"molecule": "CC(C)C(=O)Nc1ccc(NC(=O)c2ccc(COc3ccccc3)cc2)cc1", "Potency": "inactive"},
      {"molecule": "COc1ccc(C(=O)NCCNc2ccccc2[N+](=O)[O-])cc1", "Potency": "inconclusive: 7.3 µM [activator, partial curve]"},
      {"molecule": "O=C(COc1ccc2ccccc2c1)NNC(=O)Cc1cccc2ccccc12", "Potency": "inactive"},
      {"molecule": "CCOc1ccc(Nc2nc(N3CCOCC3)nc(N3CCOCC3)n2)cc1", "Potency": "inconclusive: 29.1 µM [inhibitor, single point]"},
      {"molecule": "Cc1sc(NC(=O)c2ccc(Cl)s2)c(C(N)=O)c1C", "Potency": "inconclusive: 2.59 µM [activator, full curve]"},
      {"molecule": "O=C(Nc1ncn[nH]1)c1cc([N+](=O)[O-])ccc1Cl", "Potency": "inconclusive: 15.8 µM [activator, single point]"},
      {"molecule": "Cc1nn(-c2ccccc2)cc1/C=N/NC(N)=S", "Potency": "inconclusive: 29.1 µM [activator, single point]"},
      {"molecule": "COc1ccc(C2CC(c3ccccc3)Nc3nc(NS(C)(=O)=O)nn32)cc1", "note": "(configuration not stated)", "Potency": "inactive"},
      {"molecule": "CCOC(=O)COn1c(=O)c(-c2ccc(OCC)cc2)[n+]([O-])c2ccccc21", "Potency": "inconclusive: 25.9 µM [activator, single point]"},
      {"molecule": "O=C(Nc1ccc(F)c(F)c1)c1ccccc1", "Potency": "inconclusive: 20.6 µM [activator, partial curve]"},
      {"molecule": "Cc1cc(N)n(-c2ncnc3scc(-c4ccc(Cl)cc4)c23)n1", "Potency": "inactive"},
      {"molecule": "O=C(Nc1nc(-c2cccs2)c(C(=O)C(F)(F)F)s1)c1ccco1", "Potency": "inconclusive: 13 µM [inhibitor, partial curve, poor fit]"},
      {"molecule": "Cc1ccc(C(=O)n2c(-c3ccccc3)cnc2SCC(=O)Nc2ccc(C)cc2C)cc1", "Potency": "inconclusive: 2.91 µM [activator, partial curve]"},
      {"molecule": "CC(C)Oc1ccccc1/C=N/NC(=O)c1ccc(F)cc1", "Potency": "inactive"},
      {"molecule": "COc1ccc(NC(=O)CCCc2ccccc2)c(OC)c1", "Potency": "inconclusive: 23.1 µM [activator, single point]"},
      {"molecule": "CCCS(=O)(=O)N1CCN=C1SCc1cccc2ccccc12", "Potency": "inconclusive: 29.1 µM [inhibitor, single point]"},
      {"molecule": "ClCc1nc2ccccc2n1Cc1ccccc1", "Potency": "inactive"},
      {"molecule": "CC(C)(C)n1ncc2c(=O)n(CC(=O)N3CCCC3)cnc21", "Potency": "inactive"},
      {"molecule": "CCOC(=O)C1=C(N2CCCCC2)c2cc3c(n2C1=O)CCCC3", "Potency": "inconclusive: 25.9 µM [inhibitor, single point]"},
      {"molecule": "NS(=O)(=O)c1ccc(CCNC(=O)c2ccc(Cl)c(S(=O)(=O)NCc3ccco3)c2)cc1", "Potency": "inactive"},
      {"molecule": "Cc1cccc(N(CC(=O)NC(C)C)C(=O)CCC(=O)Nc2nccs2)c1", "Potency": "inactive"},
      {"molecule": "O=C(Nc1ccc(N2CCN(C(=O)c3ccco3)CC2)cc1)c1cc(Br)ccc1Cl", "Potency": "active: 11.6 µM"},
      {"molecule": "O=c1c(-c2nn[nH]n2)coc2ccc(Cl)cc12", "Potency": "inactive"},
      {"molecule": "CN(C)c1ccc(-n2cccc2)cc1", "Potency": "inconclusive: 29.1 µM [inhibitor, single point]"},
      {"molecule": "CSc1ccc(CN2CCC(Oc3cccc(C(=O)N4CCCC4)c3)CC2)cc1", "Potency": "inconclusive: 25.9 µM [inhibitor, single point]"},
      {"molecule": "CCN(CC)c1nc2c(s1)C(=O)NCCC2", "Potency": "inactive"},
      {"molecule": "O=C(CNc1ccccc1)N/N=C/c1ccc2c(c1)OCCO2", "Potency": "inconclusive: 20.6 µM [activator, partial curve, poor fit]"},
      {"molecule": "CC(=O)N1CCc2cc(S(=O)(=O)N3CCc4ccccc43)ccc21", "Potency": "inactive"},
      {"molecule": "Cc1cccc(OCCNC(=O)c2cccc(Oc3ccc(C(F)(F)F)cc3[N+](=O)[O-])c2)c1", "Potency": "inconclusive: 23.1 µM [inhibitor, partial curve, poor fit]"},
      {"molecule": "CC12CC(NC(=O)N1c1ccc(C(=O)N3CCN(c4ccc(F)cc4)CC3)cc1)c1ccccc1O2", "note": "(configuration not stated)", "Potency": "inconclusive: 23.1 µM [inhibitor, partial curve, poor fit]"},
      {"molecule": "COc1cccc(NC(=O)COC(=O)c2ccc3c(c2)OCO3)c1", "Potency": "inactive"},
      {"molecule": "Cc1ccc(Cl)cc1N1CCN(C(=O)CCS(=O)(=O)c2cccc3nonc23)CC1", "Potency": "inconclusive: 25.9 µM [inhibitor, partial curve]"},
      {"molecule": "O=C(O)c1ccccc1/C=N/Nc1ccc(S(=O)(=O)N2CCCC2)cc1[N+](=O)[O-]", "Potency": "inconclusive: 29.1 µM [inhibitor, single point]"},
      {"molecule": "CCOC(CCNC(=O)c1cc(-c2cccs2)nc2ccccc12)OCC", "Potency": "inconclusive: 13 µM [inhibitor, partial curve]"},
      {"molecule": "CCOC(=O)C1(Cc2ccccc2C(F)(F)F)CCN(C(C)COC)CC1", "note": "(configuration not stated)", "Potency": "inactive"},
      {"molecule": "COc1ccc(C(=O)NCCS(=O)(=O)NCc2ccc(F)cc2)cc1", "Potency": "inactive"},
      {"molecule": "Cn1cnc([N+](=O)[O-])c1Sc1nc2ccccc2[nH]1", "Potency": "inactive"},
      {"molecule": "Cc1noc(C)c1S(=O)(=O)N(C)C[C@H]1Oc2ccc(NS(=O)(=O)c3ccc(F)cc3)cc2C(=O)N([C@H](C)CO)C[C@@H]1C", "Potency": "active: 5.8 µM"},
      {"molecule": "CC(C)c1cc(C(=O)NNC(=S)NCc2ccco2)c(O)c(C(C)C)c1", "Potency": "active: 18.4 µM"},
      {"molecule": "O=C(NC1CCCCC1)c1ccc(-c2cccc([N+](=O)[O-])c2)o1", "Potency": "inconclusive: 2.06 µM [activator, full curve]"},
      {"molecule": "O=C(COc1ccc2ccccc2c1)NNC(=O)c1ccccc1", "Potency": "inactive"},
      {"molecule": "Cc1c(C(=O)OCC(=O)NCCN2C(=O)CSC2=O)oc2c1ccc1ccccc12", "Potency": "inconclusive: 25.9 µM [inhibitor, single point]"},
      {"molecule": "O=C(Nc1nnc(-c2ccccc2F)s1)c1cccnc1", "Potency": "inconclusive: 6.51 µM [activator, full curve]"},
      {"molecule": "CC(C)(C)c1ccc(C(=O)Nc2sc3c(c2C(=O)O)CCC3)cc1", "Potency": "active: 3.66 µM"},
      {"molecule": "Cc1nc2cc(NC(=O)Nc3ccc(Br)cc3)ccc2o1", "Potency": "inconclusive: 2.31 µM [activator, full curve]"},
      {"molecule": "COc1ccc(-c2csc(N(CCc3ccccc3)C(=O)COc3ccccc3)n2)cc1", "Potency": "inactive"},
      {"molecule": "COc1ccc(NC(=S)NCc2cccs2)cc1", "Potency": "inactive"},
      {"molecule": "COc1ccc(CNC(=O)CN(CCC(C)C)S(=O)(=O)c2ccc3c(c2)OCCO3)cc1", "Potency": "inconclusive: 29.1 µM [inhibitor, single point]"},
      {"molecule": "COc1ccc(CC(=O)N2CCN=C2SCc2cccc([N+](=O)[O-])c2)cc1", "Potency": "inconclusive: 20.6 µM [inhibitor, single point]"},
      {"molecule": "CCOC(=O)C1C2C=CC3(CN(c4cccc(Cl)c4)C(=O)C13)O2", "note": "(configuration not stated)", "Potency": "inconclusive: 18.4 µM [activator, single point]"},
      {"molecule": "CCN(C[C@H]1N[C@@](CC)(C(=O)OC)[C@H]2C(=O)N(Cc3ccccc3)C(=O)[C@@H]12)C(=O)C1CCCCC1", "Potency": "inconclusive: 18.3 µM [inhibitor, single point]"},
      {"molecule": "CC(C)C(=O)NNC(=O)CSc1ncnc2c1cnn2-c1ccccc1Cl", "Potency": "inconclusive: 0.259 µM [inhibitor, single point]"},
      {"molecule": "O=C(Nc1ccccc1C(=O)NC1CCCC1)NC1CCCC1", "Potency": "inactive"},
      {"molecule": "Nc1c(C(=O)c2ccccc2)sc(Nc2ccccc2)c1S(=O)(=O)c1ccccc1", "Potency": "inconclusive: 14.6 µM [inhibitor, partial curve, poor fit]"},
      {"molecule": "Cc1ccc(C(=O)NC(=S)Nc2ccc3c(c2)OCCO3)c(C)c1", "Potency": "inconclusive: 16.4 µM [activator, partial curve]"},
      {"molecule": "Cc1cccc(NC(=O)c2ccc([N+](=O)[O-])o2)c1C", "Potency": "inactive"},
      {"molecule": "COc1ccc(CNc2ccc3c(c2)nc(C)n3C)cc1OC", "Potency": "inconclusive: 29.1 µM [activator, single point]"},
      {"molecule": "CCOc1ccc2nc(NC(=O)c3ccc(OC)c(S(=O)(=O)N4CCOCC4)c3)sc2c1", "Potency": "active: 13 µM"},
      {"molecule": "O=C(CCCN1C(=O)/C(=C/c2cccs2)SC1=S)Nc1ccc(O)c(C(=O)O)c1", "Potency": "inactive"},
      {"molecule": "CCc1cc(C(=O)NNC(=S)NC2CCCCC2)cs1", "Potency": "inconclusive: 1.46 µM [activator, partial curve, poor fit]"},
      {"molecule": "O=C(CN1C(=O)NC2(CCCC2)C1=O)Nc1ccccc1F", "Potency": "inactive"},
      {"molecule": "O=C(Nc1ccc(F)c(Cl)c1)c1cc(-c2ccco2)on1", "Potency": "inactive"}
    ]}
  ]
}
